These are yes or no findings as the source states them, for the method shown. In cells and extracts the contact can be indirect. Here binding means that the protein was enriched with, or labelled near, the bait; the list need not be complete.
Experiments:
[1] = target: M28 protein, recombinant, affinity-tagged (Streptococcus pyogenes) (UniProt W0T1Y4); test: affinity purification with mass spectrometry; 20 μg affinity-tagged M protein on Strep-Tactin Sepharose beads, 100 μl pooled normal human plasma, 37°C 1 h, washed with ice-cold PBS, eluted with 5 mM biotin; DIA-MS, hits filtered against sfGFP (log2 enrichment >1, adjusted P 0.05); only the target purified
[2] = target: M49 protein, recombinant, affinity-tagged (Streptococcus pyogenes) (UniProt P16947); test: as above

Sequences of proteins named here, by UniProt entry; tags and fusion partners are left off. Residues count along the entry.
UniProt W0T1Y4, residues 42-358: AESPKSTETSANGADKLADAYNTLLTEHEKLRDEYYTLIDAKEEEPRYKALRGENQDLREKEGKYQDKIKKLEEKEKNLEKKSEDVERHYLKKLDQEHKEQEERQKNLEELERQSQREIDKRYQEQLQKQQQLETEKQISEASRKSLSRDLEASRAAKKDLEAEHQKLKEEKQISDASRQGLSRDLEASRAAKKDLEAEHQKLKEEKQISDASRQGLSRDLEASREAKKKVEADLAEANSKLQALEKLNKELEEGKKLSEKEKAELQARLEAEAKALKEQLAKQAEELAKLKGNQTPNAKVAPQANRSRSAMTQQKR
UniProt P16947, residues 42-354: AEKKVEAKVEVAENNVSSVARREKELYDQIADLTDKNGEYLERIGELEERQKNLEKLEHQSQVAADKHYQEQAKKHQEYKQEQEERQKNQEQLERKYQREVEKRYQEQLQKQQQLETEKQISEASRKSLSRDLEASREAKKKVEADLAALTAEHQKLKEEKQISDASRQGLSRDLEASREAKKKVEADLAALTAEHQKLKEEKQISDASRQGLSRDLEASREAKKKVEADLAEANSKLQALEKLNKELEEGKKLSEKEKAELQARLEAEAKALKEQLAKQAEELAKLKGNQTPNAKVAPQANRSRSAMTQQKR

B1: vitamin K-dependent protein S (protein, UniProt P07225 42-676)
chain: ANSLLEETKQGNLERECIEELCNKEEAREVFENDPETDYFYPKYLVCLRSFQTGLFTAARQSTNAYPDLRSCVNAIPDQCSPLPCNEDGYMSCKDGKASFTCTCKPGWQGEKCEFDINECKDPSNINGGCSQICDNTPGSYHCSCKNGFVMLSNKKDCKDVDECSLKPSICGTAVCKNIPGDFECECPEGYRYNLKSKSCEDIDECSENMCAQLCVNYPGGYTCYCDGKKGFKLAQDQKSCEVVSVCLPLNLDTKYELLYLAEQFAGVVLYLKFRLPEISRFSAEFDFRTYDSEGVILYAESIDHSAWLLIALRGGKIEVQLKNEHTSKITTGGDVINNGLWNMVSVEELEHSISIKIAKEAVMDINKPGPLFKPENGLLETKVYFAGFPRKVESELIKPINPRLDGCIRSWNLMKQGASGIKEIIQEKQNKHCLVTVEKGSYYPGSGIAQFHIDYNNVSSAEGWHVNVTLNIRPSTGTGVMLALVSGNNTVPFAVSLVDSTSEKSQDILLSVENTVIYRIQALSLCSDQQSHLEFRVNRNNLELSTPLKIETISHEDLQRQLAVLDKAMKAKVATYLGGLPDVPFSATPVNAFYNGCMEVNINGVQLDLDEAISKHNDIRAHSCPSVWKKTKNS
What does the source list for B1?
binding [1]: binds; binding [2]: binds

From PMC8547449
